# Source: publication PMC5007517
# The chains behind the UniProt entries cited, without tags or fusion partners.
# UniProt A0A287B5A9: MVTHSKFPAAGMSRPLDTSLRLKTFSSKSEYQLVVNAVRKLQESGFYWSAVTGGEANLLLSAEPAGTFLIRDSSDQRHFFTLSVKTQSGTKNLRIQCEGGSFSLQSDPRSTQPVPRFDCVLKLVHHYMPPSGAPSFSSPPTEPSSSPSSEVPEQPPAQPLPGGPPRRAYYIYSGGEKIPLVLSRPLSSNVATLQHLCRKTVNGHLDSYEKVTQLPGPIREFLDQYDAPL
# These are yes or no findings as the source states them, for the method shown. Binding seen in cells or lysates may run through a third protein. Some entries that bind do so weakly or less than the wild type. Sequences can lack the tags named with a protein.
# T1: HA-tagged TNF-receptor-associated factor (TRAF) 2 (pig (amplified from PK-15 porcine kidney cells)) (UniProt F1RVZ4)
# T1 sequence: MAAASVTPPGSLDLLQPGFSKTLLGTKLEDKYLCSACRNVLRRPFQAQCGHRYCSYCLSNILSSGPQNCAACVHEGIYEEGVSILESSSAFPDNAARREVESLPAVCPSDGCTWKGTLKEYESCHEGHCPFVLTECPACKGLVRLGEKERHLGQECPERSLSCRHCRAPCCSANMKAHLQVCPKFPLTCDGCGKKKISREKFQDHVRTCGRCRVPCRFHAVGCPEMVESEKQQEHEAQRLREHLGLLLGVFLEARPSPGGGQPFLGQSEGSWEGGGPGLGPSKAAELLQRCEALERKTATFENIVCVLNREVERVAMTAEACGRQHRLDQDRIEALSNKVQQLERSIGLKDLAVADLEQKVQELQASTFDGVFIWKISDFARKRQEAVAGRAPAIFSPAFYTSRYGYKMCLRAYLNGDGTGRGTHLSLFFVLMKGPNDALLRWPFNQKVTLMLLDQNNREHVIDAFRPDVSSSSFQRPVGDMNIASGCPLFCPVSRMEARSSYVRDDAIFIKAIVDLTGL
# Tests used:
# [1] = molecular target: T1, HA-tagged TNF-receptor-associated factor (TRAF) 2 (pig (amplified from PK-15 porcine kidney cells))
# [2] = molecular target: FLAG-tagged SOCS3 (suppressor of cytokine signaling 3) (pig (amplified from PK-15 porcine kidney cells))
binding [1],binding [2],Molecule
binds,,FLAG-tagged SOCS3 (suppressor of cytokine signaling 3) (from UniProt A0A287B5A9 1-229)
,binds,"HA-tagged TNF-receptor-associated factor (TRAF) 2 (protein, UniProt F1RVZ4 1-520) MAAASVTPPGSLDLLQPGFSKTLLGTKLEDKYLCSACRNVLRRPFQAQCGHRYCSYCLSNILSSGPQNCAACVHEGIYEEGVSILESSSAFPDNAARREVESLPAVCPSDGCTWKGTLKEYESCHEGHCPFVLTECPACKGLVRLGEKERHLGQECPERSLSCRHCRAPCCSANMKAHLQVCPKFPLTCDGCGKKKISREKFQDHVRTCGRCRVPCRFHAVGCPEMVESEKQQEHEAQRLREHLGLLLGVFLEARPSPGGGQPFLGQSEGSWEGGGPGLGPSKAAELLQRCEALERKTATFENIVCVLNREVERVAMTAEACGRQHRLDQDRIEALSNKVQQLERSIGLKDLAVADLEQKVQELQASTFDGVFIWKISDFARKRQEAVAGRAPAIFSPAFYTSRYGYKMCLRAYLNGDGTGRGTHLSLFFVLMKGPNDALLRWPFNQKVTLMLLDQNNREHVIDAFRPDVSSSSFQRPVGDMNIASGCPLFCPVSRMEARSSYVRDDAIFIKAIVDLTGL"
